Laboratory results from patent US20260176354A1, “ANTIBODY BINDING TO CD22, AND BISPECIFIC ANTIBODY, CHIMERIC ANTIGEN RECEPTOR AND ANTIBODY-DRUG CONJUGATE COMPRISING SAME, AND USE THEREOF” (THE ASAN FOUNDATION, priority 2022, published 2026).
Results are given in words; binding and its absence hold for the method and conditions named. Some results given as binding are weak or reduced against the parent protein; the word gives no strength. For some assays here: Sequences can lack the tags named with a protein.

By UniProt entry, the sequences of proteins in these tests, tags left out. Residues count along the entry.
UniProt P20273, residues 20-847: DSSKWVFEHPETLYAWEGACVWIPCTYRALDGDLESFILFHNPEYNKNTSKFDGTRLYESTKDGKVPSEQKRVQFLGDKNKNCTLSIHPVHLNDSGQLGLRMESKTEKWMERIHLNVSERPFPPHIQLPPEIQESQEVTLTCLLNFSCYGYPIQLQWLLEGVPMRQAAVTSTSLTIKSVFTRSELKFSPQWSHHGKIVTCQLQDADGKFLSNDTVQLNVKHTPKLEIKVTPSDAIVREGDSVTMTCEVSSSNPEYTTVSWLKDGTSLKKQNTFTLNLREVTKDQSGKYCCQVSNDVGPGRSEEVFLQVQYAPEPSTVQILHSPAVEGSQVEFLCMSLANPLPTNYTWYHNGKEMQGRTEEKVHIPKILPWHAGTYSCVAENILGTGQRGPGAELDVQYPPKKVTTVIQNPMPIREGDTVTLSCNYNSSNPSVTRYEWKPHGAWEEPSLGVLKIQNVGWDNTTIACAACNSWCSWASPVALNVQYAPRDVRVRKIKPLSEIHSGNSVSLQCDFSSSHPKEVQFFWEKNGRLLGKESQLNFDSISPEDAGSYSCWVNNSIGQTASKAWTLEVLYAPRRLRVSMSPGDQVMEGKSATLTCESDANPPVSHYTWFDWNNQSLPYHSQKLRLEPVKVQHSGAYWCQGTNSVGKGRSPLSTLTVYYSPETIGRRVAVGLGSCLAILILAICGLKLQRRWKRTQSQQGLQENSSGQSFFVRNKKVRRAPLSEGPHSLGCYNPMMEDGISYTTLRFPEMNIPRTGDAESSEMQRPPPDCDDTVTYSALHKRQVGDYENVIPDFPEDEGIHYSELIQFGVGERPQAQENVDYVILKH

B1: recombinant anti-CD22 scFv-Cκ-HA fusion protein CI4-47 (scFv)
scFv: LTQPSSVSANPGETVKITCSGGSGGYGWYQQKSPGSAPVSLIYDNDQRPSDIPSRFSGSKSGSTGTLTITGVQADDEAVYYCGSYDSSYVGIFGAGTTLTVLGGGGSGGGGSGGGGSAVTLDESGGGLQTPGGALSLVCKASGFTFSNYCMQWVRQAPGKGLEWVAGIGSSGTGTYYGSAVRGRATISRDNGQSTVRLQLNNLRAEDTGTYYCARDYGSDSGCGWGIYAGEIDAWGHGTEVIVSSGGGGSGGGGSGGGGSRTVAAPSVFIFPPSDEQLKSGTASVVCLLNNFYPREAKVQWKVDNALQSGNSQESVTEQDSKDSTYSLSSTLTLSKADYEKHKVYACEVTHQGLSSPVTKSFNRGESGGAYPYDVPDYAS
notes: Chicken-derived scFv fused to a human constant kappa region and an HA tag; expressed in HEK293F cells, purified on KappaSelect; also called CI4-47 scFv-Cκ-HA
B2: recombinant anti-CD22 scFv-Cκ-HA fusion protein 2-3-14 (scFv)
scFv: LTQPSSVSANPGETVKITCSGSNNTYGWYQQKAPGSAPVTVIYDNTNRPSDIPSRFSGSKSGSTNTLTITGVQAEDEAVYFCGSRDSTYVGIFGAGTTLTVLGGGGSGGGGSGGGGSAVTLDESGGGLQTPGGGLSLVCKASGFSFSDYGMGWVRQAPGKGLEFVASISNTGSYTDYGAAVKGRATISRDNGQSTLRLQLNNLRAEDTGTYFCAKSAYGGSYGSSSIDAWGHGTEVIVSSGGGGSGGGGSGGGGSRTVAAPSVFIFPPSDEQLKSGTASVVCLLNNFYPREAKVQWKVDNALQSGNSQESVTEQDSKDSTYSLSSTLTLSKADYEKHKVYACEVTHQGLSSPVTKSFNRGESGGAYPYDVPDYAS
notes: The text prints the clone name 2-3-14 as 'Feb; 3, 2014' in several paragraphs (date conversion artefact); also called Feb; 3, 2014; 2-3-14 scFv-Cκ-HA
B3: anti-CD22 IgG protein CI4-47_8-1_H1-2-37 (antibody, V domains shown)
VH: EVQLLESGGGLVQPGGSLRLSCAASGFTFSRHGMYWVRQAPGKGLEWVSGIGSSGTGTYYGSAVRGRFTISRDNSKNTLYLQMNSLRAEDTAVYYCARDYGSDSGVGWGIYAGEIDAWGQGTLVTVSS
VL: LTQPPSVSVSPGQTARITCSGGSGGYGWYQQKPGSAPVSVIYDNDQRPSGIPERFSGSSSGTTVTLTISGVQAEDEADYYCGSYDSSYVGIFGGGTKLTVLR
B4: anti-CD22 IgG protein CI4-47_8-1 (antibody, V domains shown)
VH: EVQLLESGGGLVQPGGSLRLSCAASGFTFSNYCMSWVRQAPGKGLEWVSGIGSSGTGTYYGSAVRGRFTISRDNSKNTLYLQMNSLRAEDTAVYYCARDYGSDSGCGWGIYAGEIDAWGQGTLVTVSS
VL: LTQPPSVSVSPGQTARITCSGGSGGYGWYQQKPGSAPVSVIYDNDQRPSGIPERFSGSSSGTTVTLTISGVQAEDEADYYCGSYDSSYVGIFGGGTKLTVLR
B5: anti-CD22 IgG protein CI4-47_8-1_H1-2-1 (antibody, V domains shown)
VH: EVQLLESGGGLVQPGGSLRLSCAASGFTFSKHGHYWVRQAPGKGLEWVSGIGSSGTGTYYGSAVRGRFTISRDNSKNTLYLQMNSLRAEDTAVYYCARDYGSDSGIGWGIYAGEIDAWGQGTLVTVSS
VL: LTQPPSVSVSPGQTARITCSGGSGGYGWYQQKPGSAPVSVIYDNDQRPSGIPERFSGSSSGTTVTLTISGVQAEDEADYYCGSYDSSYVGIFGGGTKLTVLR
B6: anti-CD22 IgG protein 2-3-14 (antibody, V domains shown)
VH: AVTLDESGGGLQTPGGGLSLVCKASGFSFSDYGMGWVRQAPGKGLEFVASISNTGSYTDYGAAVKGRATISRDNGQSTLRLQLNNLRAEDTGTYFCAKSAYGGSYGSSSIDAWGHGTEVIVSS
VL: LTQPSSVSANPGETVKITCSGSNNTYGWYQQKAPGSAPVTVIYDNTNRPSDIPSRFSGSKSGSTNTLTITGVQAEDEAVYFCGSRDSTYVGIFGAGTTLTVLR
notes: also called Feb; 3, 2014
B7: anti-CD22 IgG protein 2-3-14_H1-24 (antibody, V domains shown)
VH: AVTLDESGGGLQTPGGGLSLVCKASGFAFGRSSMGWVRQAPGKGLEFVASISNTGSYTDYGAAVKGRATISRDNGQSTLRLQLNNLRAEDTGTYFCAKSAYGGSYGSSSIDAWGHGTEVIVSS
VL: LTQPSSVSANPGETVKITCSGSNNTYGWYQQKAPGSAPVTVIYDNTNRPSDIPSRFSGSKSGSTNTLTITGVQAEDEAVYFCGSRDSTYVGIFGAGTTLTVLR
B8: anti-CD22 IgG protein 2-3-14_H2-40 (antibody, V domains shown)
VH: AVTLDESGGGLQTPGGGLSLVCKASGFSFSDYGMGWVRQAPGKGLEFVAFLGSSSSYTDYGAAVKGRATISRDNGQSTLRLQLNNLRAEDTGTYFCAKSAYGGSYGSSSIDAWGHGTEVIVSS
VL: LTQPSSVSANPGETVKITCSGSNNTYGWYQQKAPGSAPVTVIYDNTNRPSDIPSRFSGSKSGSTNTLTITGVQAEDEAVYFCGSRDSTYVGIFGAGTTLTVLR

target: CD22 on B-cell lymphoma cells (OCI-Ly7 cells; Raji cells) (human) (UniProt P20273); assay: flow cytometry on OCI-Ly7 cells, 0.25 µM fusion protein, anti-HA detection

Binder	binding
B1	binds
B2	binds

target: CD22 on B-cell lymphoma cells (OCI-Ly7 cells; Raji cells) (human) (UniProt P20273); assay: flow cytometry on Raji cells, 0.1 µM IgG, anti-human Cκ-APC detection

Binder	binding
B3	binds
B4	binds
B5	binds
B6	binds
B7	binds
B8	binds
